PubChem BioAssay AID1259424 | University of Nebraska Medical Center – 2018
Test: 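Rank knockdowns across the genome by resemblance to the KSR1 depletion profile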 (primary screen). System: human HCT116 colon cancer cells. Knock-down reagent: siRNA pool against human genes, 50 nM. Read-out: 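Six signature mRNAs by branched-DNA multiplex assay, scaled to two housekeeping genes and non-targeting median, log2; matched to mean KSR1 knockdown profile by Pearson correlation and euclidean distance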. Reading the numbers: mean correlation with KSR1 profile and KSR1 correlation: higher = expression change more like KSR1 knockdown; mean distance from KSR1 profile: higher = expression change less like KSR1 knockdown.
This is one part, drawn at random, of about 14,000 deposited reagents. 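Higher correlation or smaller distance means closer resemblance to KSR1 loss; control wells, including KSR1 knockdowns, recur on many plates.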 Reagent sequences are not shown. Not stated in the record: the time to read-out.

| Gene | mean correlation with KSR1 profile | mean distance from KSR1 profile | KSR1 correlation, replicate 1 | KSR1 correlation, replicate 2 | KSR1 correlation, replicate 3 |
| --- | --- | --- | --- | --- | --- |
| DLD | -0.049 | 1.49 | -0.224 | -0.128 | 0.11 |
| IQCN | -0.0135 | 1.66 | 0.0189 | -0.0595 | -0.144 |
| EZH1 | -0.297 | 3.98 | -0.494 | -0.228 | -0.29 |
| CSRNP3 | 0.182 | 1.74 | 0.221 | 0.0869 | -0.0683 |
| AP2M1 | -0.323 | 4.51 | -0.445 | -0.348 | -0.324 |
| DEFA4 | -0.508 | 2.04 | -0.369 | -0.182 | -0.419 |
| TCTN2 | 0.512 | 1.49 | 0.76 | 0.639 | 0.108 |
| ABHD17A | 0.081 | 1.85 | -0.0494 | 0.217 | -0.274 |
| SMURF1 | -0.08 | 1.26 | -0.249 | 0.0838 | -0.0538 |
| CSTF2T | -0.256 | 3.4 | -0.128 | -0.31 | -0.2 |
| FAM3B | -0.391 | 1.49 | -0.681 | -0.0583 | -0.315 |
| NTNG2 | 0.906 | 0.705 | 0.833 | 0.862 | 0.812 |
| NR4A2 | 0.718 | 1.69 | 0.852 | 0.635 | 0.467 |
| ALDH3B2 | 0.225 | 2.14 | -0.00852 | 0.37 | 0.392 |
| LZIC | 0.238 | 2.23 | 0.133 | 0.198 | 0.315 |
| PROP1 | 0.686 | 2.11 | 0.587 | 0.883 | 0.617 |
| TASL | 0.411 | 1.6 | 0.142 | 0.325 | 0.697 |
| INO80D | -0.425 | 1.84 | -0.378 | -0.321 | -0.522 |
| NSL1 | 0.228 | 1.83 | 0.347 | -0.106 | 0.115 |

A few values from above.
Under “KSR1 correlation, replicate 1”, PROP1 reads 0.587
Under “mean distance from KSR1 profile”, ALDH3B2 reads 2.14
Entry for DEFA4 under “KSR1 correlation, replicate 2”: -0.182
TCTN2, KSR1 correlation, replicate 2: 0.639

More entries:
| Gene | mean correlation with KSR1 profile | mean distance from KSR1 profile | KSR1 correlation, replicate 1 | KSR1 correlation, replicate 2 | KSR1 correlation, replicate 3 |
| --- | --- | --- | --- | --- | --- |
| KRT33A | 0.568 | 2.3 | 0.408 | 0.526 | 0.741 |
| RPL5 | -0.231 | 2.67 | -0.233 | -0.407 | -0.184 |
| COL19A1 | -0.524 | 2.17 | -0.317 | -0.715 | -0.415 |
| KCNJ15 | -0.458 | 1.15 | -0.417 | -0.338 | -0.248 |
| ATP2B1 | -0.26 | 2.14 | -0.178 | -0.497 | -0.457 |
| OPN1LW | 0.351 | 3.41 | 0.509 | 0.427 | 0.356 |
| GEMIN4 | -0.457 | 3.81 | -0.299 | -0.41 | -0.465 |
| PLPP4 | -0.257 | 3.52 | -0.347 | -0.241 | -0.199 |
| NCK1 | 0.00707 | 0.969 | 0.079 | -0.248 | 0.401 |
| GLIPR1 | 0.807 | 0.7 | 0.794 | 0.454 | 0.811 |
| HLA-DQB1 | -0.512 | 4.43 | -0.524 | -0.437 | -0.649 |
| GSTA4 | 0.443 | 1.64 | 0.387 | 0.203 | 0.372 |
| RAG2 | -0.696 | 2.69 | -0.773 | -0.717 | -0.511 |
| FUCA2 | -0.325 | 2.8 | -0.432 | -0.497 | -0.454 |
| CYP2W1 | -0.446 | 1.88 | -0.153 | -0.562 | -0.625 |
